At least one structure is not confirmed: it was looked up by name or label, or the drawing left a doubt.
Columns and labels:
Format in all cases: physicochemical
[1] = Chemical stability under aqueous conditions, two weeks at 40° C. (Example 4); details: 1 mg/mL
[2] = Chemical stability under aqueous conditions, 40 days at 40° C. (Example 9); details: 1 mg/mL
[3] = Chemical stability in dry conditions, 3 months at 40° C. (Example 10); details: dry (lyophilized) formulation

In the case of `CC[C@H](C)[C@@H]1NC(=O)[C@H](CC(=O)O)NC(=O)[C@H](CC(C)C)NC(=O)c2ccc(-c3ccc(N4CCN(C(=O)c5ccccc5-c5ccccc5C(=O)N5CCN(c6ccc(-c7ccc8cc7CNC(=O)[C@@H]7CCCN7[C@H](C(=O)NC(C)(C)C)[C@H](C)NC(=O)[C@H]([C@@H](C)CC)NC(=O)[C@H](CC(=O)O)NC(=O)[C@H](CC(C)C)NC8=O)cc6)CC5)CC4)cc3)c(c2)CNC(=O)[C@@H]2CCCN2[C@H](C(=O)NC(C)(C)C)[C@H](C)NC1=O` [Compound 1], the “Normalized purity after two weeks storage at 40° C.” value ([1]; 20 mM glycine pH 9) is reported as 99.7, the “Normalized purity after two weeks storage at 40° C.” value ([1]; 20 mM phosphate pH 7) is reported as 99.1 and the “Normalized purity after two weeks storage at 40° C.” value ([1]; 20 mM phosphate pH 8) is reported as 99.4. The “Normalized purity after 40 days storage at 40° C.” value ([2]; 20 mM glycine pH 9) was 99, the “Normalized purity after 40 days storage at 40° C.” value ([2]; 20 mM phosphate pH 7) was 99 and the “Normalized purity after 40 days storage at 40° C.” value ([2]; 20 mM phosphate pH 8) was 99. For the same compound, the “Normalized purity after three months storage at 40° C.” value ([3]; pH 2-3, humidity set by saturated NaCl) was 99 and the “Normalized purity after three months storage at 40° C.” value ([3]; pH 9, humidity set by saturated NaCl) was 99.

— patent US20250057912A1, “Compounds” (priority 2021, published 2025)
